Experimental data taken from patent US20230242675A1.
Positions count from the first letter of the chain named. These are yes or no findings as the source states them, for the method shown. Some binding calls cover weakened binding; strength is not graded here. Blank lines part the entries; values can stand above or below the binder they belong to.

How the values were obtained:
[1] = biological target: cynomolgus (cyno) PD-L1/His fusion protein (cynomolgus) (UniProt G7PSE7); assay: ELISA / BLI
[2] = biological target: cynomolgus (cyno) PD-L1/His fusion protein (cynomolgus) (UniProt G7PSE7); assay: ELISA
[3] = biological target: human PD-L1/Fc Fusion Protein (human); assay: ELISA

binding [1]: binds
B1: EM0005-mAb86c (antibody, human IgG1, kappa, V domains shown)
VH: QVQLQQSGAELVRPGSSVKMSCKTSGYTFTTYGINWVKQRPGQGLEWIGYIYIGNGYTEYNEKFKGKATLTSDPSSRTAYMQLSSLTSEDSAIYFCARDLMVIAPKTMDYWGQGTSVTVSS
VL: DIQMNQSHKFMSTSVGDRVSITCKASQDVGTAVAWYQQKPGQSPKLLIYWASTRHTGVPDRFTGGGSGTDFTLTISNVQSEDLADYFCQQYSSYPYTFGGGTKLEMKR

binding [1]: binds
B2: EM0005-mAb90c (antibody, human IgG1, kappa, V domains shown)
VH: QVQLKQSGAELVRPGSSVKMSCKTSGYTFTSHSINWVKQRPGQGLEWIGYMYIGNGYTEYNEKFKGKATLTSDTSSTTAYMQLSSLTSEDSAIYFCAKITPVVAPYVMDYWGQGTSVTVSS
VL: B1 VL with Q3V, N5T, S7T, G65S, M106L

binding [2]: binds
B3: EM0005-mAb86 scFv (scFv)
scFv: QVQLQQSGAELVRPGSSVKMSCKTSGYTFTTYGINWVKQRPGQGLEWIGYIYIGNGYTEYNEKFKGKATLTSDPSSRTAYMQLSSLTSEDSAIYFCARDLMVIAPKTMDYWGQGTSVTVSSGGGGSGGGGSGGGGSDIQMNQSHKFMSTSVGDRVSITCKASQDVGTAVAWYQQKPGQSPKLLIYWASTRHTGVPDRFTGGGSGTDFTLTISNVQSEDLADYFCQQYSSYPYTFGGGTKLEMK

binding [2]: binds
B4: EM0005-mAb87 scFv (scFv)
scFv: EVQLQQSGPELVKPGASVKISCKASGYSFTDYYINWVKQSPEKSLEWIGETIPNTGGTTYNQKFKAKATLTVDKSSSTAYMQLKSLTSEDSAVYYCARYQSGSPFAYWGQGTPVTVSSGGGGSGGGGSGGGGSDIVMTQSQKFMSTTVGDRVSITCKASQNVGTAVAWYQQKPGQSPKLLIYSASNRYTGVPDRFTGSGSGTDFTLTISNMQSEDLADYFCQQHYSTPYTFGGGTKLEIK

binding [2]: binds | binding [3]: binds
B5: EM0005-mAb90 scFv (scFv)
scFv: QVQLKQSGAELVRPGSSVKMSCKTSGYTFTSHSINWVKQRPGQGLEWIGYMYIGNGYTEYNEKFKGKATLTSDTSSTTAYMQLSSLTSEDSAIYFCAKITPVVAPYVMDYWGQGTSVTVSSGGGGSGGGGSGGGGSDIVMTQTHKFMSTSVGDRVSITCKASQDVGTAVAWYQQKPGQSPKLLIYWASTRHTGVPDRFTGSGSGTDFTLTISNVQSEDLADYFCQQYSSYPYTFGGGTKLELK

binding [1]: binds
B6: EM0005-mAb87c (antibody, human IgG1, kappa, V domains shown)
VH: EVQLQQSGPELVKPGASVKISCKASGYSFTDYYINWVKQSPEKSLEWIGETIPNTGGTTYNQKFKAKATLTVDKSSSTAYMQLKSLTSEDSAVYYCARYQSGSPFAYWGQGTPVTVSS
VL: DIVMTQSQKFMSTTVGDRVSITCKASQNVGTAVAWYQQKPGQSPKLLIYSASNRYTGVPDRFTGSGSGTDFTLTISNMQSEDLADYFCQQHYSTPYTFGGGTKLEIKR
